# Assay results taken from the supplement of paper PMC8728848.
# The other results are listed elsewhere or left out.
# Key:
# Test in all cases: glycan array binding signal (z-score within array); higher = stronger binding
# Details in all cases: glycan notation: IUPAC condensed, linker removed
# [1] = target: Neu5Ac(a2-6)GlcNAc(b1-4)GlcNAc(b1-4)GlcNAc
# Procedure, shortened: (§1)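 The binding signal is a Z-score computed within each array. Data were drawn from 3228 arrays in the Consortium for Functional Glycomics database, restricted to those with a known protein sequence. Scores were averaged over arrays of the same protein sequence at different concentrations or buffers, and over linkers, and negative values can be taken as non-binding.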
# Neu5Ac(a2-8)Neu5Ac = target: Neu5Ac(a2-8)Neu5Ac
# Procedure, shortened: as §1
# [2] = target: Neu5Ac(a2-8)Neu5Ac(a2-3)Gal(b1-3)GalNAc(b1-4)[Neu5Ac(a2-3)]Gal(b1-4)Glc
# Procedure, shortened: as §1
# [3] = target: Neu5Ac(a2-8)Neu5Ac(a2-3)Gal(b1-3)GalNAc(b1-4)[Neu5Ac(a2-8)Neu5Ac(a2-3)]Gal(b1-4)Glc
# Procedure, shortened: as §1
# [4] = target: Neu5Ac(a2-8)Neu5Ac(a2-3)Gal(b1-4)Glc
# Procedure, shortened: as §1
# [5] = target: Neu5Ac(a2-8)Neu5Ac(a2-3)Gal(b1-4)GlcNAc
# Procedure, shortened: as §1
# [6] = target: Neu5Ac(a2-8)Neu5Ac(a2-3)[Gal(b1-3)GalNAc(b1-4)]Gal(b1-4)Glc
# Procedure, shortened: as §1
# [7] = target: Neu5Ac(a2-8)Neu5Ac(a2-3)[GalNAc(b1-4)]Gal(b1-4)Glc
# Procedure, shortened: as §1
# [8] = target: Neu5Ac(a2-8)Neu5Ac(a2-8)Neu5Ac
# Procedure, shortened: as §1
# [9] = target: Neu5Ac(a2-8)Neu5Ac(a2-8)Neu5Ac(a2-3)Gal(b1-4)Glc
# Procedure, shortened: as §1
# [10] = target: Neu5Ac(a2-8)Neu5Ac(a2-8)Neu5Ac(a2-3)[Gal(b1-3)GalNAc(b1-4)]Gal(b1-4)Glc
# Procedure, shortened: as §1
# [11] = target: Neu5Ac(a2-8)Neu5Ac(a2-8)Neu5Ac(a2-3)[GalNAc(b1-4)]Gal(b1-4)Glc
# Procedure, shortened: as §1
# [12] = target: Neu5Ac(a2-8)Neu5Ac(a2-8)Neu5Ac(a2-8)Neu5Ac(a2-3)[GalNAc(b1-4)]Gal(b1-4)Glc
# Procedure, shortened: as §1
# [13] = target: Neu5Ac(a2-8)Neu5Gc(a2-3)Gal(b1-4)GlcNAc
# Procedure, shortened: as §1
# [14] = target: Neu5Ac(b2-6)Gal(b1-4)GlcNAc
# Procedure, shortened: as §1
# Neu5Ac(b2-6)GalNAc = target: Neu5Ac(b2-6)GalNAc
# Procedure, shortened: as §1
# [15] = target: Neu5Ac9Ac(a2-3)Gal(b1-3)GlcNAc
# Procedure, shortened: as §1
# [16] = target: Neu5Ac9Ac(a2-3)Gal(b1-4)GlcNAc
# Procedure, shortened: as §1
# [17] = target: Neu5Ac9Ac(a2-6)Gal(b1-4)GlcNAc
# Procedure, shortened: as §1
# [18] = target: Neu5Gc(a2-3)Gal(b1-3)GlcNAc
# Procedure, shortened: as §1
# [19] = target: Neu5Gc(a2-3)Gal(b1-3)[Fuc(a1-4)]GlcNAc
# Procedure, shortened: as §1
# Neu5Gc(a2-3)Gal(b1-4)Glc = target: Neu5Gc(a2-3)Gal(b1-4)Glc
# Procedure, shortened: as §1
# [20] = target: Neu5Gc(a2-3)Gal(b1-4)GlcNAc
# Procedure, shortened: as §1
# [21] = target: Neu5Gc(a2-3)Gal(b1-4)GlcNAc(b1-3)Gal(b1-4)GlcNAc(b1-2)Man(a1-3)[Neu5Gc(a2-3)Gal(b1-4)GlcNAc(b1-3)Gal(b1-4)GlcNAc(b1-2)Man(a1-6)]Man(b1-4)GlcNAc(b1-4)GlcNAc
# Procedure, shortened: as §1
# [22] = target: Neu5Gc(a2-3)Gal(b1-4)[Fuc(a1-3)]GlcNAc
# Procedure, shortened: as §1
# [23] = target: Neu5Gc(a2-6)Gal(b1-4)GlcNAc
# Procedure, shortened: as §1
# Neu5Gc(a2-6)GalNAc = target: Neu5Gc(a2-6)GalNAc
# Procedure, shortened: as §1
# [24] = target: Neu5Gc(a2-8)Neu5Ac(a2-3)Gal(b1-4)GlcNAc
# Procedure, shortened: as §1
# [25] = target: Neu5Gc(a2-8)Neu5Gc(a2-3)Gal(b1-4)GlcNAc
# Procedure, shortened: as §1
# [26] = target: Neu5Gc(a2-8)Neu5Gc(a2-3)Gal(b1-4)GlcNAc(b1-3)Gal(b1-4)GlcNAc
# Procedure, shortened: as §1
# [27] = target: Neu5Gc(a2-8)Neu5Gc(a2-6)Gal(b1-4)GlcNAc
# Procedure, shortened: as §1
# [28] = target: Neu5Gc(b2-6)Gal(b1-4)GlcNAc
# Procedure, shortened: as §1
binder,measurement,setting,value
"Thrombomodulin Extracellular (Mus musculus), P15306 (protein) MLGIFFLGVLAPASLGLSALAKLQPTGSQCVEHECFALFQGPATFLDASQACQRLQGHLMTVRSSVAADVISLLLSQSSMDLGPWIGLQLPQGCDDPVHLGPLRGFQWVTGDNHTSYSRWARPNDQTAPLCGPLCVTVSTATEAAPGEPAWEEKPCETETQGFLCEFYFTASCRPLTVNTRDPEAAHISSTYNTPFGVSGADFQTLPVGSSAAVEPLGLELVCRAPPGTSEGHWAWEATGAWNCSVENGGCEYLCNRSTNEPRCLCPRDMDLQADGRSCARPVVQSCNELCEHFCVSNAEVPGSYSCMCETGYQLAADGHRCEDVDDCKQGPNPCPQLCVNTKGGFECFCYDGYELVDGECVELLDPCFGSNCEFQCQPVSPTDYRCICAPGFAPKPDEPHKCEMFCNETSCPADCDPNSPTVCECPEGFILDEGSVCTDIDECSQGECFTSECRNFPGSYECICGPDTALAGQISKDCDPIPVREDTKEEEGSGEPPVSPTPGSPTGPPSARPVHSGVLIGISIASLSLVVALLALLCHLRKKQGAARAELEYKCASSAKEVVLQHVRTDRTLQKF",glycan array binding signal (z-score),[1],0.539
same,glycan array binding signal (z-score),Neu5Ac(a2-8)Neu5Ac,-0.374
same,glycan array binding signal (z-score),[2],-0.487
same,glycan array binding signal (z-score),[3],1.32
same,glycan array binding signal (z-score),[4],-1.26
same,glycan array binding signal (z-score),[5],0.47
same,glycan array binding signal (z-score),[6],-0.212
same,glycan array binding signal (z-score),[7],0.728
same,glycan array binding signal (z-score),[8],0.327
same,glycan array binding signal (z-score),[9],0.716
same,glycan array binding signal (z-score),[10],2.49
same,glycan array binding signal (z-score),[11],0.97
same,glycan array binding signal (z-score),[12],-1.38
same,glycan array binding signal (z-score),[13],0.127
same,glycan array binding signal (z-score),[14],-1.64
same,glycan array binding signal (z-score),Neu5Ac(b2-6)GalNAc,-0.138
same,glycan array binding signal (z-score),[15],-0.71
same,glycan array binding signal (z-score),[16],1.04
same,glycan array binding signal (z-score),[17],0.314
same,glycan array binding signal (z-score),[18],-0.444
same,glycan array binding signal (z-score),[19],0.091
same,glycan array binding signal (z-score),Neu5Gc(a2-3)Gal(b1-4)Glc,-1.28
same,glycan array binding signal (z-score),[20],-0.533
same,glycan array binding signal (z-score),[21],1.29
same,glycan array binding signal (z-score),[22],0.216
same,glycan array binding signal (z-score),[23],0.137
same,glycan array binding signal (z-score),Neu5Gc(a2-6)GalNAc,-0.261
same,glycan array binding signal (z-score),[24],0.52
same,glycan array binding signal (z-score),[25],1.87
same,glycan array binding signal (z-score),[26],-2.09
same,glycan array binding signal (z-score),[27],-1.45
same,glycan array binding signal (z-score),[28],-0.009

# In another format: entries from further up
binder | measurement | setting | value
Thrombomodulin Extracellular (Mus musculus), P15306 (protein) MLGIFFLGVLAPASLGLSALAKLQPTGSQCVEHECFALFQGPATFLDASQACQRLQGHLMTVRSSVAADVISLLLSQSSMDLGPWIGLQLPQGCDDPVHLGPLRGFQWVTGDNHTSYSRWARPNDQTAPLCGPLCVTVSTATEAAPGEPAWEEKPCETETQGFLCEFYFTASCRPLTVNTRDPEAAHISSTYNTPFGVSGADFQTLPVGSSAAVEPLGLELVCRAPPGTSEGHWAWEATGAWNCSVENGGCEYLCNRSTNEPRCLCPRDMDLQADGRSCARPVVQSCNELCEHFCVSNAEVPGSYSCMCETGYQLAADGHRCEDVDDCKQGPNPCPQLCVNTKGGFECFCYDGYELVDGECVELLDPCFGSNCEFQCQPVSPTDYRCICAPGFAPKPDEPHKCEMFCNETSCPADCDPNSPTVCECPEGFILDEGSVCTDIDECSQGECFTSECRNFPGSYECICGPDTALAGQISKDCDPIPVREDTKEEEGSGEPPVSPTPGSPTGPPSARPVHSGVLIGISIASLSLVVALLALLCHLRKKQGAARAELEYKCASSAKEVVLQHVRTDRTLQKF | glycan array binding signal (z-score) | [9] | 0.716
same | glycan array binding signal (z-score) | [10] | 2.49
